Laboratory results: the supplement of paper PMC3334620
Whole data set: some 33,000 sequences, median “E-score (-0.5 to 0.5)” near -0.0059, cut for the highest 2% near 0.26. The list shows a part of the results.

Target: T1, Cin5 (UniProt P40917)
T1 sequence: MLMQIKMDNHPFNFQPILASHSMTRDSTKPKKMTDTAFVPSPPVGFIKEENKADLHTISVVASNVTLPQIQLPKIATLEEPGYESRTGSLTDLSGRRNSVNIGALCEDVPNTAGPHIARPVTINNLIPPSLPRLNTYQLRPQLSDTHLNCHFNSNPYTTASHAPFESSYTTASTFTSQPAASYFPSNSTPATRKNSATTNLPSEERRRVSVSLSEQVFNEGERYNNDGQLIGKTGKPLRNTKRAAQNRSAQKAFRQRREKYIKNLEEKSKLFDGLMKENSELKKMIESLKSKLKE
Test: PBM E-score (8-mer binding enrichment) (E-score (-0.5 to 0.5)); higher = stronger / more preferred TF binding
Settings: protein concentration: 100 nM; construct: GST-full length
Method in brief: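 Detection of bound protein used fluorescent anti-GST, with scans normalised by masliner. The proteins were GST-tagged yeast transcription factors applied at about 100-200 nM to universal all-10-mer Agilent arrays made double-stranded by primer extension. Each ungapped eight-base word, pooled with its reverse complement, was scored with an E-score from the Universal PBM Analysis Suite.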

| Sequence | PBM E-score |
| --- | --- |
| TCATGTAA | 0.146 |
| GAGTCTGA | -0.153 |
| CATAGACA | -0.0153 |
| ATTTGTAC | 0.075 |
| CAAGCCTG | -0.105 |
| GCGTTCAC | -0.125 |
| ATGTTGCC | 0.0134 |
| ACTACAGT | 0.144 |
| ATAGAGGG | -0.0564 |
| ACTTCTCC | -0.1 |
| ATACCTAT | 0.176 |
| AATGCAAG | 0.00342 |
| CGTCTCAC | -0.0428 |
| CGAGAGAC | -0.0934 |
| CAATCCGC | 0.0427 |
| ACTAAGAT | 0.2 |
| TGGTAAAA | 0.0376 |
| GCGAGTGA | 0.0362 |
| AACATCAA | 0.205 |
| CGTAGGTC | -0.357 |
| AATCACGC | 0.0577 |
| ATTGGGCG | -0.0699 |
| CTATTTAC | 0.0754 |
| ATATATTG | 0.088 |
| GAGCTGAA | 0.0459 |

| Sequence | PBM E-score |
| --- | --- |
| TATTGCGA | 0.153 |
| CTGGTATA | -0.0583 |
| TCCCGCCA | -0.00516 |
| GGCTTATA | 0.0974 |
| ACCGAGTA | 0.035 |
| CACCCAGG | -0.237 |
| CCACGGAG | 0.0418 |
| AAGCTAAG | -0.164 |
| TCCAAGAA | -0.0669 |
| TTCTCAAA | 0.15 |
| CCAGTTTC | 0.0406 |
| GGTCGTCA | -0.132 |
| AACTACCA | 0.135 |
| CACCACGG | -0.325 |
| AAGCTTAA | 0.164 |
| GCTCTGCA | -0.237 |
| CTAAACCC | -0.0573 |
| ATTTTGGG | -0.0752 |
| CAAACTTA | 0.16 |
| CACATACA | 9e-05 |
| CTAGATCC | -0.0524 |
| CCTAAACC | -0.0859 |
| GCCTGTGA | -0.169 |
| GTCGTCAC | -0.0939 |
| ACGGTGAA | 0.0271 |

| Sequence | PBM E-score |
| --- | --- |
| ATTATTAG | 0.0574 |
| GGTCTCAA | -0.227 |
| CGACACAG | 0.023 |
| AGCATGCT | -0.145 |
| CCCAACAA | 0.0801 |
| GTTGTTCA | -0.0621 |
| TAGTACTA | 0.132 |
| ACCGCCGG | -0.113 |
| GAATTAAA | 0.0854 |
| CTACGTTA | 0.0121 |
| ATTAGGTC | 0.271 |
| AGCACTTA | 0.00228 |
| CCGCGTTA | 0.0622 |
| ATCCAGTG | 0.131 |
| CTCCTGGA | -0.225 |
| GCGCTCGA | -0.059 |
| TAATTCTA | 0.0873 |
| ACGTCGGG | -0.093 |
| GCCGGACA | -0.0923 |
| GATTAGGA | 0.0316 |
| CTCAGGAA | -0.108 |
| AGTTTAAG | -0.115 |
| TTAAGCAA | 0.0545 |
| CTGAGACA | -0.0351 |
| AGGAACCT | 0.0492 |

Copied from the list:
PBM E-score, TTAAGCAA is entered as 0.0545
PBM E-score, AACATCAA is entered as 0.205
PBM E-score, AATCACGC is entered as 0.0577

(list continues)

| Sequence | PBM E-score |
| --- | --- |
| ATGTTATA | 0.0953 |
| ATAGGCAA | 0.157 |
| ACTCGCTC | 0.0206 |
| GACTGTGA | 0.0649 |
| AGCCCATA | 0.146 |
| GGCCGCCA | -0.203 |
| CCATCTCC | 0.0491 |
| AGCTCTTA | 0.051 |
| CTAGATGC | 0.0126 |
| AGGATTCC | -0.174 |
| CGACTCGA | -0.142 |
| CGTCGGAA | 0.0776 |
| AAATGAAA | 0.266 |
| AGGCTTAA | -0.00411 |
| CTCCGAAA | -0.077 |
| CGCAAAGC | -0.0641 |
| ACGAGGGA | -0.0525 |
| GAGATGGA | -0.0265 |
| CAAGAACA | -0.0469 |
| ATCTCCGC | 0.0483 |
| GGTATGTA | 0.0454 |
| CCACTTGC | 0.0354 |
| ACCCATCT | 0.058 |
| CACACGTA | -0.0382 |
| CCGTTGCG | -0.203 |

| Sequence | PBM E-score |
| --- | --- |
| CGGAGGGA | -0.265 |
| GAGAAACA | 0.161 |
| GAGTGTGA | 0.113 |
| GCAGCGGC | -0.244 |
| AAAGCCGC | -0.126 |
| CGGCCAAC | -0.153 |
| ATCCCTAA | -0.19 |
| ACCGTCCT | -0.165 |
| AGGTAGTG | 0.0155 |
| AAATTGGA | 0.202 |
| ACCAGGTA | -0.219 |
| AACGATTG | 0.112 |
| CCTTGGAG | -0.14 |
| ACGGTTAT | 0.0536 |
| CAATGAGA | -0.0591 |
| CGTGACCC | -0.149 |
| AGTGGCCG | -0.132 |
| CCCATCGC | 0.0166 |
| GTTTCTTA | 0.0414 |
| ATGTCGGA | 0.00634 |
| GAATTACA | 0.0909 |
| GCGGGAAA | 0.037 |
| CTCTCGCC | -0.222 |
| GGCTGAAA | 0.0499 |
| AGATCGAA | 0.229 |

Shown with bars between the fields: part of the list above
Sequence | PBM E-score
CGGCCAAC | -0.153
ATCCCTAA | -0.19
ACCGTCCT | -0.165
AGGTAGTG | 0.0155
AAATTGGA | 0.202
ACCAGGTA | -0.219

2 records picked at random from the list so far, as already listed:

| Sequence | PBM E-score |
| --- | --- |
| CGGAGGGA | -0.265 |
| GAGAAACA | 0.161 |

Carrying on:

| Sequence | PBM E-score |
| --- | --- |
| TCTAGAGA | -0.228 |
| CGTATTAG | 0.109 |
| ATTCATCC | 0.127 |
| AAAAGGTT | -0.0538 |
| AGATAGTC | -0.0838 |
| CCATAATA | 0.226 |
| CCCTGAGG | -0.206 |
| CAGTGATC | -0.0415 |
| GCCATCGC | -0.165 |
| ATGAGGAC | -0.096 |
| CGTTTGCC | 0.059 |
| AGATAATG | 0.177 |
| CACGCCGG | -0.0549 |
| TGAAAAAA | 0.2 |
| ATTATTAA | 0.316 |
| ACAATCGA | 0.0876 |
| ACGCGCGG | 0.0983 |
| CTCATAGA | 0.0152 |
| ACAAAGTG | 0.119 |
| TATACTGA | 0.274 |
| TGATTCAA | 0.0483 |
| CACATGGA | -0.136 |
| ATGAATAC | 0.142 |
| TCGCCCAA | -0.172 |
| CAACCGGG | -0.265 |

| Sequence | PBM E-score |
| --- | --- |
| TGTGATAA | 0.194 |
| AAGTGCAA | 0.0974 |
| TCCTAAGA | -0.0986 |
| ATATGATG | 0.158 |
| GTTGTAAA | -0.0984 |
| AGGGCAGC | -0.156 |
| AAACATGG | 0.0681 |
| ATGCACAA | 0.141 |
| ACCAGCGC | -0.0758 |
| GCTTGATA | 0.0834 |
| GAATAAAA | 0.0288 |
| AGTCACCC | 0.0121 |
| CGTCGGTA | -0.223 |
| ATATCGGG | 0.0675 |
| TCAAATGA | -0.0692 |
| AATGAAGT | 0.249 |
| AACGGGAA | 0.081 |
| GCATACAA | 0.215 |
| GCATCCCC | -0.195 |
| ACGTGTAG | -0.127 |
| ACCACGTG | -0.0212 |
| GGACTCTA | -0.0904 |
